Data as given in PubChem BioAssay AID1347431 (National Center for Advancing Translational Sciences (NCATS), 2020).
In all, about 1,200 compounds went through this assay and fewer than 10 were called active. Calls come from the whole dose curve; as a rule, active = well fitted curve in the direction sought with a large enough effect; inconclusive = small, poorly fitted or top-dose-only effect, or another doubt; inactive = no such curve, though single readings can be large or run the other way. The list shows a part of the results.

Assay: Confirmatory qHTS assay for inhibitors of Activation Induced Cytidine Deaminase (AID): UDG signals; note: 0% is about no effect
Settings: UDG coupled enzyme activity counter-screen; at 115 µM (top of the series) unless noted
Summary of the method: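 UDG readout, a counterscreen: AID (1 uM, 4/3x) plus UDG (2 U/mL, 4/3x) preincubated 10 min with compound (7.32 nM - 114 uM final), then 4 h with DJC20/DJC23 substrates at room temperature; NaOH added, fluorescence read at 560/665 nm.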

Row | Compound | activity change, negative = inhibition
1 | Cc1cccc(Cn2c(=O)n3nc(-c4ccccc4)nc3c3ccccc32)c1 | inactive: -4.8%
2 | CCOc1ccc(Nc2sc(C(=O)c3ccc(F)cc3)c(N)c2S(=O)(=O)c2ccc(C)cc2)cc1 | inactive: -3.57%
3 | Cc1cccc(NC(=O)CC2Nc3cccc4cccc(c34)NC2=O)c1 (stereo not drawn) | inactive: -9.66%
4 | Cc1nc2nc(SCC(=O)N(C)Cc3ccccc3)nn2c(C)c1Cc1ccccc1Cl | inactive: -4.76%
5 | COc1ccc2c(c1)Cc1sc(NC(=O)c3ccccc3C)nc1-2 | inactive: 4.61%
6 | CCCCOc1ccc(C(=O)NCC(c2ccc(Cl)cc2)N2CCOCC2)cc1 (stereo not drawn) | inactive: 6.3%
7 | Cc1ccc(S(=O)(=O)C(CNC(=O)COc2ccccc2)c2cccs2)cc1 (stereo not drawn) | inactive: -5.17%
8 | Cc1ccccc1CN1C(=O)c2ccccc2Sc2ccc(C(=O)O)cc21 | inactive: 7.26%
9 | CCOC(=O)c1ccc(NC(=O)CC2Nc3cccc4cccc(c34)NC2=O)cc1 (stereo not drawn) | inactive: 1.73%
10 | CCOc1ccccc1NC(=O)Nc1ccc2nc(N3CCN(C)CC3)cc(C)c2c1 | inactive: -3.46%
11 | O=C(CN(c1ccc(Cl)c(C(F)(F)F)c1)S(=O)(=O)c1ccccc1)Nc1cccnc1 | inactive: 5.24%
12 | COC(=O)c1cc(Cl)ccc1NC(=O)CSc1ncc(S(=O)(=O)c2ccc(Br)cc2)c(=O)[nH]1 | inactive: 0.448%
13 | CCOC(=O)c1cnc2ccc(C)cc2c1Nc1ccc(N(CC)CC)cc1 | inactive: -13.4%
14 | CCN1CCN(c2cc(C)c3cc(NC(=O)/C=C/c4cccc(Cl)c4)ccc3n2)CC1 | inactive: 2.14%
15 | COc1cccc(C2CC(=O)N3CN(C4CCCCC4)CSC3=C2C#N)c1 (stereo not drawn) | inactive: -0.724%
16 | COc1ccc(CCNC(=O)c2nn(C)c3c2CSc2ccccc2-3)cc1OC | inactive: -6.28%
17 | COc1cccc(-n2c(SCC(=O)Nc3cccc(C)c3)nc3c([nH]c4ccccc43)c2=O)c1 | inactive: -2.78%
18 | Cc1ccccc1C(=O)Nc1sc2c(c1C(=O)O)CCC(C(C)(C)C)C2 (stereo not drawn) | inactive: -0.45%
19 | CCC1CCCCN1CCCNC(=O)c1cn(CC)c2ccc(S(=O)(=O)N(C)C3CCCCC3)cc2c1=O (stereo not drawn) | inactive: -0.267%
20 | COc1cc(NC(=O)CCc2c(C)nc3c4c(C)cc(C)nc4nn3c2C)cc(OC)c1 | inactive: 3.35%
21 | O=C(NCCc1ccccc1)c1ccc2c(c1)CCN2S(=O)(=O)c1ccccc1 | inactive: -8.15%

Individual results from the list.
Entry for COc1ccc(CCNC(=O)c2nn(C)c3c2CSc2ccccc2-3)cc1OC under activity change, negative = inhibition: inactive: -6.28%
Entry for COC(=O)c1cc(Cl)ccc1NC(=O)CSc1ncc(S(=O)(=O)c2ccc(Br)cc2)c(=O)[nH]1 under activity change, negative = inhibition: inactive: 0.448%
Entry for COc1ccc2c(c1)Cc1sc(NC(=O)c3ccccc3C)nc1-2 under activity change, negative = inhibition: inactive: 4.61%
Entry for Cc1cccc(NC(=O)CC2Nc3cccc4cccc(c34)NC2=O)c1 (stereo not drawn) under activity change, negative = inhibition: inactive: -9.66%
Entry for CCCCOc1ccc(C(=O)NCC(c2ccc(Cl)cc2)N2CCOCC2)cc1 (stereo not drawn) under activity change, negative = inhibition: inactive: 6.3%
Entry for O=C(CN(c1ccc(Cl)c(C(F)(F)F)c1)S(=O)(=O)c1ccccc1)Nc1cccnc1 under activity change, negative = inhibition: inactive: 5.24%
Entry for Cc1ccccc1C(=O)Nc1sc2c(c1C(=O)O)CCC(C(C)(C)C)C2 (stereo not drawn) under activity change, negative = inhibition: inactive: -0.45%

Additional structures follow.

Row | Compound | activity change, negative = inhibition
22 | Nc1ccc2oc(Cc3ccc(Cl)cc3)nc2c1 | inactive: -1%
23 | COc1ccc(N(C)C(=O)c2cc3c(s2)-c2ccccc2OC3)cc1 | inactive: -11.3%
24 | O=C(c1ccc(Cl)cc1)c1cn(Cc2ccccc2)c2cc3c(cc2c1=O)OCCO3 | inactive: -1.61%
25 | CCOC(=O)C1=C(CN2CCN(c3cc(C)ccc3C)CC2)NC(=O)NC1c1ccccc1 (stereo not drawn) | inactive: -4.59%
26 | Cc1ccc(NCc2nc3ccccc3n2CCOc2ccccc2C)cc1 | inactive: -1.46%
27 | Cc1cc(Nc2cccc(F)c2)n2nc(-c3ccco3)nc2n1 | inactive: -1.28%
28 | Cc1ccc2oc(=O)n(CCCOc3ccccc3Cl)c2c1 | inactive: -2.09%
29 | Cc1cc(Nc2cccc(C(F)(F)F)c2)nc2ccc(NC(=O)c3cccc(Cl)c3)cc12 | inactive: -10.8%
30 | Cn1nnnc1SCCNCc1cc(Br)ccc1OCc1ccccc1Cl | inactive: -14.9%
31 | COc1cccc(NC(=O)Cn2cc(C(=O)c3ccc(C)cc3)c(=O)c3cc(OC)ccc32)c1 | inactive: 0.647%
32 | CC(C)(C)c1ccc(OCC(=O)NCC2(N3CCOCC3)CCCCC2)cc1 | inactive: -6.27%
33 | CCc1ccc(NC(=O)CSc2nc(-c3cccc(OC)c3)nc3c2Cc2c(CO)cnc(C)c2O3)cc1 | inactive: 3.85%
34 | COc1ccc(OC)c(CNC(=O)c2nn(C)c3c2CS(=O)(=O)c2ccccc2-3)c1 | inactive: 6.53%
35 | CCCCN(CC)C(=O)c1nn(-c2ccc(OC)cc2)c(=O)c2c1c1ccccc1n2C | inactive: -1.94%
36 | Cc1cc(C)c2c(CC(=O)N(Cc3ccc(Cl)cc3)Cc3ccco3)coc2c1 | inactive: 2.44%
37 | Cc1ccc(NC(=O)Cn2nc(Cc3ccncc3)c3ccccc3c2=O)c(Cl)c1 | inactive: 12.6%
38 | CC(C)c1ccc(S(=O)(=O)c2cnc(SCC(=O)Nc3ccc4c(c3)OCCO4)[nH]c2=O)cc1 | inactive: 9.75%
39 | Oc1ccc(NCc2ccccc2OCc2ccc(Cl)cc2)cc1 | inactive: -21.4%
40 | CCOc1ccc(CCNC(=O)c2cn(CC)c3ccc(S(=O)(=O)N4CCCCCC4)cc3c2=O)cc1OCC | inactive: -15.9%
41 | N=c1n(CCN2CCCCC2)c2ccccc2n1CC(O)COc1ccc(Cl)cc1Cl (stereo not drawn) | inactive: -4.14%
42 | O=C(CC1N=C2c3ccccc3N=C(SCc3ccccc3F)N2C1=O)NCc1ccc2c(c1)OCO2 (stereo not drawn) | inactive: 1.74%

Row | Compound | activity change, negative = inhibition
43 | O=C(NCCc1nc2ccccc2n1CCCOc1ccc(Cl)cc1)C1CCCCC1 | inactive: -5.51%
44 | Fc1ccc(Cn2c(-c3cccc(Br)c3)nc3ccccc32)cc1 | inactive: -6.83%
45 | CCn1c(=O)c2cc(C(=O)NCCCN3CCC(C)CC3)sc2c2ccccc21 | inactive: -5.82%
46 | Cc1cccc(N2CCN(C(=O)Cn3nc(Cc4cccnc4)c4ccccc4c3=O)CC2)c1C | inactive: -10.3%
47 | CC(C)(C)c1ccc(C(=O)N2CCC(c3nc4ccccc4o3)CC2)cc1 | inactive: -4.92%
48 | Cc1ccc(Cl)cc1NC(=O)C(C)n1nc(-c2ccccc2)ccc1=O (stereo not drawn) | inactive: -9.16%
49 | COc1ccc(-c2nc(SCC(=O)Nc3ccc4c(c3)OCO4)c(-c3ccc(OC)cc3)[nH]2)cc1 | inactive: -7.71%
50 | COc1cc(Cl)c(C)cc1NC(=O)CSc1ncc(S(=O)(=O)c2ccc(C(C)(C)C)cc2)c(=O)[nH]1 | inactive: 7.68%
51 | C=Cc1ccc(CN2C(=O)N(c3cccc(Cl)c3)S(=O)(=O)c3ccccc32)cc1 | inactive: -5.39%
52 | COc1ccccc1C(=O)NCCn1cc(SCc2ccccc2Cl)c2ccccc21 | inactive: -1.5%
53 | CC(C)(C)OC(=O)N1CCC(c2c(C(=O)NCCN3CCC(Cc4ccccc4)CC3)cnn2-c2ccccc2)CC1 | inactive: -12%
54 | CCCCOc1ccc(C(=O)N(Cc2ccc(C(C)C)cc2)C2CCS(=O)(=O)C2)cc1 (stereo not drawn) | inactive: -7.5%
55 | COc1ccc(OCC(=O)NCC(c2ccc(Cl)cc2)N2CCCCC2)cc1 (stereo not drawn) | inactive: -10.1%
56 | CCc1ccccc1NC(=O)CSc1nc(-c2ccccc2OC)nc2c1Cc1c(CO)cnc(C)c1O2 | inactive: -7.96%
57 | Cc1nc2nc(SCC(=O)NCCc3ccc(Cl)cc3)nn2c(C)c1Cc1ccccc1 | inactive: -0.826%
58 | CN1CCN(c2nc3c(S(=O)(=O)c4ccc(Br)cc4)nnn3c3ccsc23)CC1 | inactive: 6.17%
59 | Cc1ccc(N2C(=O)c3[nH]nc(-c4ccc(Cl)cc4)c3C2c2ccc(F)cc2)cc1 (stereo not drawn) | inactive: -4.01%
60 | Cc1c(C)n(C)c2ccc(C(=O)N3CCN(c4ccccc4)CC3)cc12 | inactive: 5.96%
61 | Cc1ccc(S(=O)(=O)Nc2nc3n(n2)C(c2ccccc2Cl)C=C(c2ccccc2)N3)cc1 (stereo not drawn) | inactive: -2.79%
62 | Clc1ccccc1C(c1ccccc1)(c1ccccc1)n1ccnc1 | inactive: -13.3%
63 | O=C(C1CCC(Cn2c(=O)c3sccc3n(Cc3cccc(F)c3)c2=O)CC1)N1CCCCC1 (stereo not drawn) | inactive: -11.8%

Row | Compound | activity change, negative = inhibition
64 | Cc1c(-c2cccc(NC(=O)Nc3ccc(Cl)cc3)c2)nc2ncccn12 | inactive: -4.09%
65 | COc1ccc(-n2cc(-c3ccccc3)c3c(NC4CCCC4)ncnc32)cc1 | inactive: -4.59%
66 | Cc1ccc(Cn2cc(C(=O)c3ccc4c(c3)OCO4)c(=O)c3cc(C)ccc32)cc1 | inactive: -3.57%
67 | CC1CCN(S(=O)(=O)c2ccc3c(c2)c(=O)c(C(=O)NC(C)c2ccccc2)cn3C)CC1 (stereo not drawn) | inactive: -3.17%
68 | Cc1ccc2nc(Cl)c3cc(C(=O)N4CCCCC4C)sc3c2c1 (stereo not drawn) | inactive: -1.83%
69 | CC(c1ccccc1)n1cc2c(c1-c1ccccc1Br)c(=O)n(C)c(=O)n2C (stereo not drawn) | inactive: -11.4%
70 | COc1ccccc1-c1nc2cc(NC(=O)c3ccccc3Cl)ccc2o1 | inactive: -0.488%
71 | Cc1nc(-c2ccc(F)cc2)sc1CCNC(=O)c1ccc(C(C)(C)C)cc1 | inactive: -7.49%
72 | COc1ccc(C(=O)Nc2nc3c(s2)Cc2cc(OC)ccc2-3)cc1 | inactive: -5.77%
73 | CCC1CN(C(=O)N2CCC(C(=O)N3CCN(c4cc(C)ccc4C)CC3)CC2)c2ccccc2O1 (stereo not drawn) | inactive: -9.59%
74 | CC1CCN(C(=O)C(C)Sc2nc(-c3ccccc3)cc(C(F)(F)F)n2)CC1 (stereo not drawn) | inactive: 0.843%
75 | O=C(CCCCCn1c(=O)[nH]c2ccccc2c1=O)NCc1ccc(Cl)cc1 | inactive: 2.09%
76 | COc1ccc(CCNC(=O)Cn2nc(C)c3c(C)n(-c4ccc(C)cc4)nc3c2=O)c(OC)c1 | inactive: -0.414%
77 | COc1cccc(CSc2nc(-c3ccccc3OC)nc3c2Cc2c(CO)cnc(C)c2O3)c1 | inactive: -5.53%
78 | Cc1cc(C)cc(-n2ccnc2SCC(=O)Nc2ccc(C)c(Cl)c2)c1 | inactive: -9.67%
79 | CCn1cc2nc(SCc3cccc(F)c3)n(CCc3ccccc3)c(=O)c2n1 | inactive: -8.95%
80 | COc1ccc(Br)cc1CNC(=O)c1cnc2sc(N3CCCCCC3)nn2c1=O | inactive: 12.5%
81 | COc1ccccc1Nc1c2c(nc3ccc(NC(=O)/C=C/c4cc(OC)c(OC)c(OC)c4)cc13)CCCC2 | inactive: -6.15%
82 | COc1ccc(CCNC(=O)c2c[nH]n3c(=O)c(Cc4ccccc4Cl)c(C)nc23)cc1OC | inactive: 0.446%
83 | O=C(NCC1CCN(Cc2ccccc2Cl)CC1)c1cc2ccc3cccnc3c2[nH]1 | inactive: -2.88%
